Each structure is given as a SMILES string. “And” between values parts separate entries of the source, which are not always exact repeats. Identical values can stand only once. Counter-ions that a name gives are not always drawn. ± gives the standard deviation of the averaged measurements. This is one part of the list. Plates or batches differ in their baseline, so values are only roughly comparable.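 Assay uses culture-activated primary human stellate myofibroblasts; lipid droplet recovery indicates inactivation. Measured: proportion of Hoechst-counted cells over a plate-specific Bodipy cutoff, duplicate wells, DMSO and nortriptyline as per-plate negative and positive controls. A hit scores, control-normalized, above the plate's top-tenth-percentile nortriptyline wells or ranks among its three best wells. Final well concentrations not reported.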

The assay deals with primary human hepatic stellate cells (donor 1). In words: percent Bodipy-positive cells; higher = more lipid droplet accumulation. The note with it: 48 h.
Setting [1] is: library stock concentration: 10 mM.
The mark [2] stands for this setting: library stock concentration: 80 uM.
The mark [3] stands for this setting: library stock concentration: 400 uM.
The mark [4] stands for this setting: library stock concentration: 2 mM.
Setting [5] is: library stock concentration: 3.33 mM.
The mark [6] stands for this setting: library stock concentration: 1 mM.

As to `CCOc1ccc(NC(=O)CC(C)O)cc1` (centres undefined), under setting [1], the “percent Bodipy-positive cells” value worked out at 36.5 ± 5.2%.

Regarding `C=CCn1c(=O)c2cnc(Nc3ccc(N4CCN(C)CC4)cc3)nc2n1-c1cccc(C(C)(C)O)n1`, the “percent Bodipy-positive cells” value is, setting by setting: under setting [2], 18.6 ± 11%; under setting [3], 24.8 ± 6.9%; under setting [4], 28.1 ± 4.6%; under setting [5], 18.9 ± 6.7%; under setting [1], 26.1% and 42.9%.

For `CC(C)(C)NCC(O)c1ccc(O)c(CO)c1` (racemic) [Albuterol (+/-)], the “percent Bodipy-positive cells” value under setting [1] was determined as 32.8 ± 6.7%.

Regarding `Clc1ccc(C(Cn2ccnc2)OCc2csc3c(Cl)cccc23)c(Cl)c1` (centres undefined) [Sertaconazole nitrate], the “percent Bodipy-positive cells” value came to 13.5 ± 2.7%. In addition, the “percent Bodipy-positive cells” value under setting [5] stood at 10.9 ± 3%. In addition, the “percent Bodipy-positive cells” value under setting [1] was 90.2 ± 2.4%.

`CCCCCCCCCCCCCCCC(=O)NC(CO)CO` [Palmitoyl Serinol]: the “percent Bodipy-positive cells” value under setting [6] was determined as 12.1 ± 1.7%.

For `Cl[H].CN1CC\C(=C(/c2c(cccc2)C=C3)\c(cccc4)c34)\CC1` [Cyproheptadine hydrochloride], the “percent Bodipy-positive cells” value under setting [1] was 71.3 ± 7.3%.

As to `CCCCC/C=C\C/C=C\C/C=C\C/C=C\CCCCN1C(=O)C=CC1=O` [N-Arachidonyl Maleimide], the “percent Bodipy-positive cells” value under setting [6] is 8.71 ± 3.6%.

Turning to `CN(CCOc1ccc(C[C@H](Nc2ccccc2C(=O)c2ccccc2)C(=O)O)cc1)c1ccccn1`, the “percent Bodipy-positive cells” value under setting [1] came out at 3.72 ± 1.1%.

On to `CC(NC(=O)Cc1cc(F)cc(F)c1)C(=O)NC1C(=O)N(C)c2ccccc2-c2ccccc21` (centres undefined), for which the “percent Bodipy-positive cells” value turned out to be 9.54 ± 5.4% under setting [5] and 64.5 ± 14% under setting [1].

For `C[C@H]1[C@H](OC(=O)CCC(=O)O)O[C@@H]2O[C@@]3(C)CC[C@H]4[C@H](C)CC[C@@H]1[C@@]24OO3` [Artesunate], the “percent Bodipy-positive cells” value is, setting by setting: under setting [5], 15.5 ± 7.5%; (library stock concentration: 5.2 mM) 5.69 ± 2.5%; under setting [1], 15.238 ± 0.0057%.

Take `C[C@H]1[C@H](OC(=O)CCC(=O)O)O[C@@H]2O[C@@]3(C)CC[C@H]4[C@H](C)CC[C@@H]1[C@@]24OO3`: under setting [1], the “percent Bodipy-positive cells” value came out at 6.29 ± 3.3%.

Take `CC(N)C(=O)OC(C)(C)Cc1ccc(Cl)cc1` (centres undefined) [Alaproclate hydrochloride]: under setting [1], the “percent Bodipy-positive cells” value was found to be 85.5 ± 4.1%.

Consider `CC(N)C(=O)OC(C)(C)Cc1ccc(Cl)cc1` (centres undefined) [Alaproclate], for which the “percent Bodipy-positive cells” value under setting [1] worked out at 57.4 ± 14%.

For the compound `O=C(O)CCNC(=O)c1ccc(/N=N/c2ccc(O)c(C(=O)O)c2)cc1` [Balsalazide Sodium], the “percent Bodipy-positive cells” value is 4.02 ± 1.5%.

With `C=CC(=O)Nc1cccc(Nc2nc(NC3CCC(N(C)C)CC3)nc3c2ncn3C(C)C)c1` (centres undefined), the “percent Bodipy-positive cells” value is, setting by setting: under setting [2], 33.2 ± 6.4%; under setting [3], 50.9 ± 8.4%; under setting [4], 54 ± 6.3%; under setting [1], 98.4 ± 1.2%.

Turning to `C[n+]1ccccc1/C=N/O`, the “percent Bodipy-positive cells” value under setting [1] was found to be 35.6 ± 1.3%.

Turning to `C[n+]1ccccc1/C=N/O` [Pralidoxime chloride], the “percent Bodipy-positive cells” value was determined as 13.9 ± 5.1%. The “percent Bodipy-positive cells” value (library stock concentration: 11.6 mM) was 15.4 ± 4.4%.

As to `CCCCC[C@@H](O)/C=C/[C@H]1C(=O)C[C@H](O)[C@@H]1C/C=C\CCCC(=O)O` [15(R)-Prostaglandin D2], the “percent Bodipy-positive cells” value under setting [6] is 13.3 ± 1.1%.

With `CCOc1cc(N)c(Cl)cc1C(=O)NCC1CN(Cc2ccc(F)cc2)CCO1` (centres undefined) [Mosapride Citrate], the “percent Bodipy-positive cells” value under setting [5] was 11.8 ± 0.52% and the “percent Bodipy-positive cells” value under setting [1] came to 31.2 ± 10%.

With `CCOc1cc(N)c(Cl)cc1C(=O)NCC1CN(Cc2ccc(F)cc2)CCO1` (centres undefined), the “percent Bodipy-positive cells” value under setting [1] was found to be 30.6 ± 0.79%.

Turning to `COc1cc(Nc2ncc(F)c(Nc3ccc4c(n3)NC(=O)C(C)(C)O4)n2)cc(OC)c1OC.O=S(=O)(O)c1ccccc1`, the “percent Bodipy-positive cells” value under setting [1] came out at 91.9 ± 3.7%.

For the compound `Cc1cccc(Nc2ccccc2C(=O)O)c1C` [Mefenamic Acid], the “percent Bodipy-positive cells” value under setting [5] is 9.27 ± 2.7% and the “percent Bodipy-positive cells” value under setting [1] came to 36.5 ± 17%.

In the case of `Cc1cccc(Nc2ccccc2C(=O)O)c1C` [Mefenamic acid], the “percent Bodipy-positive cells” value is 30 ± 18%. The “percent Bodipy-positive cells” value (library stock concentration: 8.3 mM) was 9.58% and 13.1%. Also, the “percent Bodipy-positive cells” value under setting [1] was 41.2 ± 1.9%.

On to `Cc1cccc(Nc2ccccc2C(=O)O)c1C`, for which the “percent Bodipy-positive cells” value under setting [1] stood at 31.8 ± 3.8%.

Regarding `CCC(C)n1ncn(-c2ccc(N3CCN(c4ccc(OCC5COC(Cn6cncn6)(c6ccc(Cl)cc6Cl)O5)cc4)CC3)cc2)c1=O` (centres undefined) [Itraconazole], the “percent Bodipy-positive cells” value runs as follows: (library stock concentration: 2.8 mM) 7.07 ± 3%; under setting [5], 52.3 ± 4.2%; under setting [1], 53.36 ± 0.5%.

With `O=C(O)[C@]1(O)C[C@@H](O)[C@@H](O)[C@H](O)C1` [Quinic acid], the “percent Bodipy-positive cells” value stood at 8.79 ± 0.69%.

Turning to `CNCCCN1c2ccccc2CCc2ccccc21` [Desipramine hydrochloride], the “percent Bodipy-positive cells” value is, setting by setting: (library stock concentration: 6.6 mM) 30.9 ± 3.9%; under setting [1], 64.1 ± 7.5%.

Turning to `CC(C)(C(=O)NCC(F)(F)C(F)(F)F)C(=O)N[C@@H]1C(=O)Nc2ccccc2-c2ccccc21`, the “percent Bodipy-positive cells” value runs as follows: under setting [5], 6.77 ± 1.9%; under setting [1], 16.7 ± 0.8%.

Regarding `CC[n+]1c(-c2ccccc2)c2cc(N)ccc2c2ccc(N)cc21` [Homidium bromide], under setting [1], the “percent Bodipy-positive cells” value worked out at 92.4 ± 3.1%.

Turning to `O=C1OC(CN2CCOCC2)CN1/N=C/c1ccc([N+](=O)[O-])o1` (centres undefined) [Furaltadone hydrochloride], the “percent Bodipy-positive cells” value amounted to 6.78 ± 1.1%.

For the compound `O=C1OC(CN2CCOCC2)CN1/N=C/c1ccc([N+](=O)[O-])o1` (centres undefined) [Furaltadone HCl], the “percent Bodipy-positive cells” value runs as follows: under setting [5], 8.14 ± 6.1%; under setting [1], 26.4 ± 7.5%.

In the case of `O=C1OC(CN2CCOCC2)CN1/N=C/c1ccc([N+](=O)[O-])o1` (centres undefined), the “percent Bodipy-positive cells” value under setting [1] was found to be 33.56 ± 0.036%.

Regarding `Cc1ccsc1C(=CCCN1CCC[C@@H](C(=O)O)C1)c1sccc1C`, the “percent Bodipy-positive cells” value under setting [1] came out at 2.96 ± 0.12%.

For the compound `O=C1c2c(O)cc(O)cc2O[C@H](c2cc(O)c(O)c(O)c2)[C@H]1O` [Dihydromyricetin], the “percent Bodipy-positive cells” value under setting [5] was 9.05 ± 2.6% and the “percent Bodipy-positive cells” value under setting [1] turned out to be 11.1 ± 1.8%.

For the compound `Cc1ccc(-c2c(-c3nn(C)c4ncnc(N5CC[C@H](N6CCCCC6)C5)c34)cnn2C)cc1`, the “percent Bodipy-positive cells” value runs as follows: under setting [5], 8.38 ± 1.5%; under setting [1], 25.1 ± 0.82%.

The values are drawn from the supplement of paper PMC9135407.
